Source: patent publication US10709697B2, “Bis-amines, compositions, and uses related to CXCR4 inhibition” (Emory University, priority 2015, dated 2020)
Some results were stated once for a whole list of compounds, not compound by compound.

Amino acid sequences for entries named in this document (tags omitted).
UniProt P61073, whole entry: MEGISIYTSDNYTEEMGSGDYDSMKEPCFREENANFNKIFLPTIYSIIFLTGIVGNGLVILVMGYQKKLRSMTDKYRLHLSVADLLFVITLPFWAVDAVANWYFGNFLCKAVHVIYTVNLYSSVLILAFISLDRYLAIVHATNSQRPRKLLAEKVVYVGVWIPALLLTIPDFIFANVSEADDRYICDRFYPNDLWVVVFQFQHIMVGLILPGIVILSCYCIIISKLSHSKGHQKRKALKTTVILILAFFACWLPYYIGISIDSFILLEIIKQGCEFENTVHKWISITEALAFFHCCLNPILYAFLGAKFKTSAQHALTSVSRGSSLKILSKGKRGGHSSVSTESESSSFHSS

Experiments:
CXCR4 = target: T1, CXCR4 (Homo sapiens, UniProt P61073); assay: Primary binding affinity screening (competition with biotinylated TN14003); conditions: effective concentration = lowest concentration with significant reduction of rhodamine fluorescence; MDA-MB-231 cells; tested at 1, 10, 100, 1000 nM
T1 construct: endogenous in cells; host or cells: MDA-MB-231
Method: The compounds were initially screened with a binding affinity assay. […] MDA-MB-231 cells were pre-incubated with compounds at concentrations of 1, 10, 100, and 1000 nM, then incubated with biotinylated TN14003 and streptavidin-conjugated rhodamine to determine the binding efficiency of the new compounds to the CXCL12 binding domain of CXCR4. […] Thus, this screening is a semi-quantitative, first pass measure of the level of activity.
For binding affinity assay, 2×10^4 MDA-MB-231 cells in 300 μL of cell culture medium were seeded in an 8-well slide chamber 2 days before the experiments were conducted. Various concentrations of different compounds (1, 10, 100, or 1000 nM) were added to the separate wells and incubated for 10 min at room temperature, and then the cells were fixed in 4% ice-cold paraformaldehyde. The cells were rehydrated in phosphate-buffered saline (PBS). The slides were subsequently incubated for 30 min at room temperature with 0.05 μg/mL biotinylated TN14003, washed three times with PBS, and incubated in streptavidin-rhodamine (1:150 dilution; Jackson ImmunoResearch Laboratories, West Grove, Pa.) for 30 min at room temperature. Finally, the slides were washed with PBS and mounted in an anti-fade mounting solution (Molecular Probes, Eugene, Oreg.), and the samples were analyzed on a Nikon Eclipse E800 microscope.

[1] = system: carrageenan-induced mouse paw edema; assay: In vivo suppression against carrageenan-induced paw edema; conditions: 10 mg/kg i.p. daily; female C57BL/6J mice; 74 h after carrageenan challenge
Method: CXCR4 plays a role in the recruitment of inflammatory cells to sites of inflammation. Blocking CXCR4 is a therapeutic strategy in inflammatory diseases. A carrageenan-induced mouse paw edema model as an efficient model to evaluate the in vivo CXCR4 antagonistic activity for CXCR4 inhibitors.
Acute inflammation was induced by subcutaneous injection of 50 μL of λ-carrageenan (1% w/v in saline) into one of the hind paws of the female C57BL/6J mice (Jackson Laboratories); the other hind paw was injected with 50 μL of saline, which was used as a non-inflammation control. The selected compounds were dissolved in 10% DMSO and 90% of 45% (2-hydroxypropyl)-β-cyclodextrin (CD) in PBS. In the treatment group, compounds IIg, IIk, IIm and IIn were administered intraperitoneally (i.p.) at 10 mg/kg daily, while TN14003 was administered at 300 μg/kg, i.p., daily, 30 min following carrageenan challenge. The rationale for using 300 μg/kg for TN14003 was that this concentration was reported to be the minimum concentration needed to achieve the maximum efficacy of this compound in a […] metastasis animal model. […] The final paws were photographed and measured for thickness from the “palm” to the back of the paw with a caliper. […] The inflammation-suppression percentage was calculated by comparing the drug-treated group to the control group.

EC (CXCR4) [nM]	Compound	inflammation-suppression percentage (paw edema) [1] [%]
> 1000	CN(Cc1ccncc1)Cc1ccc(CN(C)Cc2ccncc2)cc1 [Ip, N,N′-(1,4-Phenylenebis(methylene))bis(N-methyl-1-(pyridin-4-yl)methanamine)]	
> 1000	CN(Cc1ccncc1)Cc1cccc(CN(C)Cc2ccncc2)n1 [IIp, N,N′-(Pyridine-2,6-diylbis(methylene))bis(N-methyl-1-(pyridin-4-yl)methanamine)]	

The next lines start with the molecule.

Compound	EC (CXCR4) [nM]	inflammation-suppression percentage (paw edema) [1] [%]
CN(Cc1ccc(CN(C)Cc2cccnc2)cc1)Cc1cccnc1 [Io, N,N′-(1,4-Phenylenebis(methylene))bis(N-methyl-1-(pyridin-3-yl)methanamine)]	> 1000	
c1ccc(CN(Cc2cccc(CN(Cc3ccccc3)CC3CC3)n2)CC2CC2)cc1 [IIm, N,N′-(Pyridine-2,6-diylbis(methylene))bis(N-benzyl-1-cyclopropylmethanamine)]		< 20
CN(Cc1cccc(Cl)c1)Cc1cccc(CN(C)Cc2cccc(Cl)c2)n1 [IIg, N,N′-(Pyridine-2,6-diylbis(methylene))bis(1-(3-chlorophenyl)-N-methylmethanamine)]		< 20
CN(Cc1cccnc1)Cc1cccc(CN(C)Cc2cccnc2)n1 [IIo, N,N′-(Pyridine-2,6-diylbis(methylene))bis(N-methyl-1-(pyridin-3-yl)methanamine)]	> 1000	
